Measurements taken from patent US9125947B2, “Phenylethanoic acid, phenylpropanoic acid and phenylpropenoic acid conjugates and prodrugs of hydrocodone, method of making and use thereof” (KemPharm, Inc., priority 2009, dated 2015).
Part of at least one peptide drawing is inferred or uncertain, most often the ends. Where a SMILES comes first, the peptide text is derived from it. The star is where a group is joined. X1 = COc1ccc2c3c1O[C@H]1C(O*)=CC[C@H]4[C@@H](C2)N(C)CC[C@]314

Assay: Chemical stability: hydrolysis in 5% NaHCO3
Assay type: physicochemical
Settings: 5% NaHCO3, one hour

CC[C@H](C)[C@H](NC(=O)[C@H](Cc1ccccc1)NC(=O)[C@H](Cc1ccccc1)NC(=O)[C@H](Cc1ccc(O)cc1)NC(=O)[C@@H](N)Cc1ccc(O)cc1)C(=O)OC1=CC[C@H]2[C@H]3Cc4ccc(OC)c5c4[C@@]2(CCN3C)[C@H]1O5 [YYFFI-HC, Tyr-Tyr-Phe-Phe-Ile-hydrocodone, reference compound] (H-YYFFI-X1)
initial amount of conjugate hydrolyzed, 5% NaHCO3 ambient (ambient temperature (~20° C.)): 0% | initial amount of conjugate hydrolyzed, 5% NaHCO3 100° C. (oil bath at 100° C.): 70%
